{
  "source": "paper PMC7862700",
  "note": "The list shows a part of the results. The exact form of the protein is not confirmed.",
  "data": [
    {"biological_target": "T1, ETS1 (UniProt P14921)", "T1 sequence": "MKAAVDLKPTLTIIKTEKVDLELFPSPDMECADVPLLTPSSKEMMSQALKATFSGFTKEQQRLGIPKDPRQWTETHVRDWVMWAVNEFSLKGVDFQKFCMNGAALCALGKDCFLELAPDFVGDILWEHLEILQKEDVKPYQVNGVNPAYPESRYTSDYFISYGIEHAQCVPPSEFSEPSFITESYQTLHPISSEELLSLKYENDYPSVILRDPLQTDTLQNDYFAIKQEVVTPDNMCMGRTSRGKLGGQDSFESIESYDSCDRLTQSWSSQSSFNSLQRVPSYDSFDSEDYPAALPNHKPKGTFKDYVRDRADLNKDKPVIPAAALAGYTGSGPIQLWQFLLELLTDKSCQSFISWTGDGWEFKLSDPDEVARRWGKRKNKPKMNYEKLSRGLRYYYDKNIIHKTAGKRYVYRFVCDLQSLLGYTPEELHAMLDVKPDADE", "assay": "DAPPL (digital affinity profiling via proximity ligation, sequencing)", "details": "10 mM Tris-HCl pH 7.5, 50 mM NaCl, 1 mM DTT, 4% glycerol, room temperature, 30 min; GST-TFs on glutathione beads, 16-mer random dsDNA library, 0.1% …; high values mean tight binding; double strand, one strand shown; scale: fold enrichment (6-mer frequency, TF over GST control)", "values": [
      {"sequence": "TCTTAA", "binding signal": 1.26},
      {"sequence": "AAATGT", "binding signal": 1.34},
      {"sequence": "TAAGCT", "binding signal": 1.18},
      {"sequence": "CACTGG", "binding signal": 1.16},
      {"sequence": "GATACG", "binding signal": 1.13},
      {"sequence": "CCTGGA", "binding signal": 1.41},
      {"sequence": "TTCATA", "binding signal": 1.19},
      {"sequence": "TCTCAA", "binding signal": 1.35},
      {"sequence": "GCTTCG", "binding signal": 1.4},
      {"sequence": "TAGTTT", "binding signal": 1.12},
      {"sequence": "GACCTT", "binding signal": 1.6},
      {"sequence": "TTGCCT", "binding signal": 1.24},
      {"sequence": "AAGTCT", "binding signal": 1.21},
      {"sequence": "ACTCTT", "binding signal": 1.28},
      {"sequence": "TGGTAC", "binding signal": 1.18},
      {"sequence": "CTCAGG", "binding signal": 1.07},
      {"sequence": "TTATGT", "binding signal": 1.39},
      {"sequence": "ACCACC", "binding signal": 1.03},
      {"sequence": "AAATTA", "binding signal": 1.24},
      {"sequence": "CCCACA", "binding signal": 1.08},
      {"sequence": "GGTTTT", "binding signal": 1.1},
      {"sequence": "GTATGC", "binding signal": 1.16},
      {"sequence": "ATAATT", "binding signal": 1.35},
      {"sequence": "AATTGC", "binding signal": 1.39},
      {"sequence": "AAGAAA", "binding signal": 1.27},
      {"sequence": "GCTCCA", "binding signal": 1.26},
      {"sequence": "CGAAGC", "binding signal": 1.28},
      {"sequence": "ACCAAT", "binding signal": 1.35},
      {"sequence": "ATAGCT", "binding signal": 1.14},
      {"sequence": "TATTGG", "binding signal": 1.18},
      {"sequence": "CGCTCT", "binding signal": 1.24},
      {"sequence": "CTCAAT", "binding signal": 1.24},
      {"sequence": "CTGACT", "binding signal": 1.41},
      {"sequence": "GGAAAC", "binding signal": 1.31},
      {"sequence": "CTTAGA", "binding signal": 1.15},
      {"sequence": "TATAAC", "binding signal": 1.17},
      {"sequence": "ACTAAG", "binding signal": 0.991},
      {"sequence": "TTCAGC", "binding signal": 1.18},
      {"sequence": "TGGTCT", "binding signal": 1.59}
    ]}
  ]
}
